Taken from: PubChem BioAssay AID1259425 (University of Nebraska Medical Center, 2018)

- Aim: 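Seek colon cancer weak points whose silencing resembles KSR1 loss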 (primary screen)
- System: HCT116 human colon cancer cells
- Reagents: siRNA pool against human genes, 50 nM siRNA
- Measured: 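After 50 nM siRNA pool, branched-DNA assay measures six marker transcripts per well, minus blank, normalised to the geometric mean of two housekeeping transcripts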
- Direction: BNIP3L mRNA: higher = more BNIP3L transcript after knockdown; NDRG1 mRNA: higher = more NDRG1 transcript after knockdown
The deposit covers about 14,000 reagents; below is a part drawn at random. Further read-outs or replicates are left out here. Reagent sequences are not shown. Not given: the time to read-out.

target gene	PubChem SID	BNIP3L mRNA, set 1	NDRG1 mRNA, set 1
EPN1 (GeneID 29924)	SID363998443	0.0865	0.123
SAMD9L (GeneID 219285)	SID364004739	0.0789	0.0539
EPO (GeneID 2056)	SID363992089	0.0669	0.108
GPR32 (GeneID 2854)	SID363992764	0.228	0.586
ZCCHC17 (GeneID 51538)	SID364000155	0.119	0.169
H3C10 (GeneID 8357)	SID363994619	0.156	0.422
PRKAG2 (GeneID 51422)	SID363999946	0.154	0.18
PLXNB2 (GeneID 23654)	SID364005453	0.286	0.793
EP300 (GeneID 2033)	SID363992693	0.0464	0.545
WBP1 (GeneID 23559)	SID363998349	0.196	0.687
HLA-DRA (GeneID 3122)	SID364001410	0.078	0.115
HMGB1 (GeneID 3146)	SID363993334	0.145	0.14
APEX1 (GeneID 328)	SID363992866	0.123	0.183
CIB2 (GeneID 10518)	SID363997196	0.122	0.273
MAK (GeneID 4117)	SID363996775	0.0993	0.0653
MICALL1 (GeneID 85377)	SID364004368	0.0666	0.201
CNTRL (GeneID 11064)	SID363997750	0.094	0.163
RPS4X (GeneID 6191)	SID363992304	0.0975	0.128

Continued (2 carried over from the part before).
target gene	PubChem SID	BNIP3L mRNA, set 1	NDRG1 mRNA, set 1
CNTRL (GeneID 11064)	SID363997750	0.094	0.163
RPS4X (GeneID 6191)	SID363992304	0.0975	0.128
PLPP3 (GeneID 8613)	SID363994782	0.0557	0.156
PTPN3 (GeneID 5774)	SID363993985	0.0677	0.117
GJA9 (GeneID 81025)	SID364003425	0.177	0.247
MON2 (GeneID 23041)	SID364005232	0.114	0.0852
PLXNB1 (GeneID 5364)	SID363993839	0.0916	0.337
KIF12 (GeneID 113220)	SID364004556	0.122	0.653
PPIL3 (GeneID 53938)	SID364003994	0.126	0.266
ADAMTSL4 (GeneID 54507)	SID364001343	0.158	0.323
ADAMTSL4 (GeneID 54507)	SID364003206	0.14	0.275
VWA7 (GeneID 80737)	SID364003350	0.253	0.138
MAGOHB (GeneID 55110)	SID364000736	0.122	0.154
LARP4B (GeneID 23185)	SID364005127	0.113	0.188
UBXN1 (GeneID 51035)	SID363999680	0.118	0.0556
PCCA (GeneID 5095)	SID363991614	0.0792	0.165
SPRY2 (GeneID 10253)	SID363996717	0.0698	0.206
AKAP7 (GeneID 9465)	SID363995794	0.0663	0.0749
SGCB (GeneID 6443)	SID363991566	0.0845	0.317
TEX10 (GeneID 54881)	SID364000493	0.13	0.183
CTRC (GeneID 11330)	SID363997961	0.0771	0.247
RPSA (GeneID 3921)	SID363993493	0.0481	0.365
RAE1 (GeneID 8480)	SID363994688	0.133	0.327
SLCO3A1 (GeneID 28232)	SID363998396	0.12	0.183
GALNT14 (GeneID 79623)	SID364002878	0.218	0.354
OTUB2 (GeneID 78990)	SID364002640	0.123	0.235
NAA16 (GeneID 79612)	SID364001123	0.136	0.266
FOXA1 (GeneID 3169)	SID363995473	0.0596	0.253
TET2 (GeneID 54790)	SID364000402	0.128	0.194
TET2 (GeneID 54790)	SID364005141	0.0571	0.124
PREB (GeneID 10113)	SID363998494	0.102	0.0987
SLC28A1 (GeneID 9154)	SID363995213	0.131	0.0519
LRCH1 (GeneID 23143)	SID363999311	0.107	0.209
FGF16 (GeneID 8823)	SID363994928	0.0755	0.159
